Drawing on publication PMC11338131, this text covers binding for three molecules.

By UniProt entry, the sequences of proteins in these tests, tags left out. Where a name states a change or a piece, a line headed by the entry shows the natural chain unless it says otherwise.
UniProt Q12948: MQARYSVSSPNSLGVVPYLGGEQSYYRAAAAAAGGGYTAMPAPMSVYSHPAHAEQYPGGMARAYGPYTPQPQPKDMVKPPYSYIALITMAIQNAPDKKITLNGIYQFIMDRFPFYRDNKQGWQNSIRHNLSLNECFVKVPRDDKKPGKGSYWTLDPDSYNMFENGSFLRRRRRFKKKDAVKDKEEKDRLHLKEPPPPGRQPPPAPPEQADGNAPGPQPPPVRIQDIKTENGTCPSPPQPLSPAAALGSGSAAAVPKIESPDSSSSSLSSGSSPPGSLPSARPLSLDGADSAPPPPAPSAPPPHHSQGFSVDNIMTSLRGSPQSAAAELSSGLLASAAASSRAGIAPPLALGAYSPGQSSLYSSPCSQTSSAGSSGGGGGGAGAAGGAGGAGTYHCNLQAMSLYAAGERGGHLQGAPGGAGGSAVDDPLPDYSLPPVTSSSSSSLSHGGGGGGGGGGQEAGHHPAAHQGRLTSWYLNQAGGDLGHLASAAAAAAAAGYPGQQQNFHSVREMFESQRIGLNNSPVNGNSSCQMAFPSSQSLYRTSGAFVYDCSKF
UniProt Q13263: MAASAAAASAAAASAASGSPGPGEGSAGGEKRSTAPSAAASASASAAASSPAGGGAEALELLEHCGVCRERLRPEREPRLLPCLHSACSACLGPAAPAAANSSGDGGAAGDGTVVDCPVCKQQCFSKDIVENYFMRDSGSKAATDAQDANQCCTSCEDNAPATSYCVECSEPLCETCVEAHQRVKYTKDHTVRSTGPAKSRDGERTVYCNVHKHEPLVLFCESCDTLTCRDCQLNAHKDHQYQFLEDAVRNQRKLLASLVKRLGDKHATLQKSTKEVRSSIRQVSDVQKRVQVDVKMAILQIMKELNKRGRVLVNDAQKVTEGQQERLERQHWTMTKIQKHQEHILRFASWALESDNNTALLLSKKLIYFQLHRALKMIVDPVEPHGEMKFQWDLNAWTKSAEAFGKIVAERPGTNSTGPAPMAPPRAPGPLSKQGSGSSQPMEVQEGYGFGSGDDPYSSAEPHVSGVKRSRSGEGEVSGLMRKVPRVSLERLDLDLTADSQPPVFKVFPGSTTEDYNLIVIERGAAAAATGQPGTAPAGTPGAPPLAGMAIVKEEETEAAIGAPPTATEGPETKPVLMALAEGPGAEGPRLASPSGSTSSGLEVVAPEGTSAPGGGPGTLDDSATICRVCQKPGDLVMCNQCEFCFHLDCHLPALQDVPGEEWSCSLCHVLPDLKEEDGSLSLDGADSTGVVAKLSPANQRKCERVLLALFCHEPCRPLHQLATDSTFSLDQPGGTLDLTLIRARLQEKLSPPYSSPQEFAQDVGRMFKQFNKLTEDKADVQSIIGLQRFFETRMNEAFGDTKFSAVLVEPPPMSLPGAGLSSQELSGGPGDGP
UniProt P61956: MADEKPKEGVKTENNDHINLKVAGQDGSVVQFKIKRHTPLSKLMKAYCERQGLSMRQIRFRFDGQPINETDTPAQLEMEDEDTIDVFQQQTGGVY

Assay [1] deals with FOXC1 (human (endogenous in BT-549 and Hs578t)) (UniProt Q12948). The assay can be described thus: affinity purification with mass spectrometry; RIME: BT-549 and Hs578t cells crosslinked with 2 mM DSG and 1% formaldehyde; endogenous FOXC1 precipitated with FOXC1 antibody; beads washed 10 times in RIPA buffer; on-bead tryptic digest, LC/MS-MS; two biological replicates; proteins found in the IgG control subtracted.

Assay [2] has the same target. The assay is described as above. This is another data set of the same source.

Read-outs that look alike come from different tables or passages of the source. No constants are given. Whether binding was seen depends on the method and setting. In cells and extracts the contact can be indirect. These calls come from enrichment with a bait or labelling near it, and not all partners need be listed.

In the case of TRIM28 (from UniProt Q13263 1-835), the binding result in assay [1] is given as “binds”.

Turning to SUMO2 (from UniProt P61956), in assay [1], the binding entry is on record as “binds”.

B1: NR2F2 (protein, UniProt P24468 1-414)
chain: MAMVVSTWRDPQDEVPGSQGSQASQAPPVPGPPPGAPHTPQTPGQGGPASTPAQTAAGGQGGPGGPGSDKQQQQQHIECVVCGDKSSGKHYGQFTCEGCKSFFKRSVRRNLSYTCRANRNCPIDQHHRNQCQYCRLKKCLKVGMRREAVQRGRMPPTQPTHGQFALTNGDPLNCHSYLSGYISLLLRAEPYPTSRFGSQCMQPNNIMGIENICELAARMLFSAVEWARNIPFFPDLQITDQVALLRLTWSELFVLNAAQCSMPLHVAPLLAAAGLHASPMSADRVVAFMDHIRIFQEQVEKLKALHVDSAEYSCLKAIVLFTSDACGLSDVAHVESLQEKSQCALEEYVRSQYPNQPTRFGKLLLRLPSLRTVSSSVIEQLFFVRLVGKTPIETLIRDMLLSGSSFNWPYMAIQ
B1: the binding entry in assay [2] was “binds”.
